Source: patent publication US20190292572A1, “Novel protic or phosphate-based ionic liquids useful for lignocellulosic processing” (priority 2016, published 2019)
Values joined by “and” are separate entries in the source; they are usually repeats but may differ in a detail not shown here. Equal values may be shown once.

Assays:
[1] = Biomass pretreatment using PBIL: solid recovery and composition
[2] = Compositional analysis of switchgrass after IL pretreatment; set-up: species or system Panicum virgatum; settings: for Glucan / Lignin / Xylan: solid loading 10 wt %
From the text: Thus, compositional analysis of untreated, and pretreated SG with [EOA][OAc] at different temperatures and time was studied and the results were summarized in Table 4. Solid recovery refers to the mass percentage of biomass (dry weight) recovered from the original biomass load. After washing, 55-81% of the biomass was recovered. […] Untreated SG contained 29.6% glucan, 18.4% xylan and 20% acid insoluble lignin (entry 1). […] This trend was most obvious after pretreatment under higher temperature where lignin content was reduced by 77% (untreated: 20% vs. pretreated: 4.7%). […] IL are consistent with our previous report by using basic ILs such as [Ch][Lys] and [C2C1Im][Lys].^13
Compositional analysis of SG before and after pretreatment was performed using NREL acidolysis protocols (LAP) LAP-002 and LAP-005, which was described in our previous work.^13 In a typical process, 200 mg of biomass and 2 mL of 72 wt % H2SO4 were incubated at 30° C. while shaking at 300 rpm for 1 h. The solution was diluted to 4 wt % H2SO4 with 56 mL of DI water and autoclaved for 1 h at 121° C. The reaction was quenched into an ice bath before removing the biomass by filtration. Carbohydrate concentrations were determined from the filtrate using an Agilent HPLC 1200 Series equipped with a Bio-Rad Aminex HPX-87H column and a Refractive Index detector. An aqueous solution of H2SO4 (4 mM) was used as the mobile phase (0.6 mL min^−I, column temperature 50° C.). The injection volume was 20 pt with a run time of 20 min. Acid insoluble lignin was quantified gravimetrically from the solid after heating overnight at 105° C. (the weight of acid-insoluble lignin+ash) and then at 575° C. for at least 6 h (the weight of ash).

SMILES: C[N+](C)(C)CCO.C[N+](C)(C)CCO.O=P([O-])([O-])O [[Ch]2[HPO4]]
- Composition Glucan % ([1]; T/t 140/1, IL 20%): 47.6%
- Composition Lignin % ([1]; T/t 140/1, IL 20%): 17.9%
- Composition Xylan % ([1]; T/t 140/1, IL 20%): 21.9%
- Composition Lignin % ([1]; T/t 140/1, IL 50%): 15.9%
- Composition Xylan % ([1]; T/t 140/1, IL 50%): 21.7%
- Composition Glucan % ([1]; T/t 140/1, IL 100%): 51.8%
- Composition Lignin % ([1]; T/t 140/1, IL 100%): 13.0%
- Composition Xylan % ([1]; T/t 140/1, IL 100%): 18.7%

SMILES: C[N+](C)(C)CCO.C[N+](C)(C)CCO.C[N+](C)(C)CCO.O=P([O-])([O-])[O-] [[Ch]3[PO4]]
- Composition Glucan % ([1]; T/t 140/1, IL 20%): 51.8%
- Composition Lignin % ([1]; T/t 140/1, IL 20%): 11.7%
- Composition Xylan % ([1]; T/t 140/1, IL 20%): 23.8%
- Composition Glucan % ([1]; T/t 140/1, IL 50%): 61.5%
- Composition Lignin % ([1]; T/t 140/1, IL 50%): 4.6%
- Composition Xylan % ([1]; T/t 140/1, IL 50%): 18.8%
- Composition Glucan % ([1]; T/t 140/1, IL 100%): 44.0%
- Composition Lignin % ([1]; T/t 140/1, IL 100%): 7.8%
- Composition Xylan % ([1]; T/t 140/1, IL 100%): 15.3%

SMILES: C[N+](C)(C)CCO.O=P([O-])(O)O [[Ch][H2PO4], Cholinium dihydrogen-phosphate]
- Composition Glucan % ([1]; T/t 140/1, IL 20%): 39.4%
- Composition Lignin % ([1]; T/t 140/1, IL 20%): 20.3%
- Composition Xylan % ([1]; T/t 140/1, IL 20%): 24.4%
- Composition Glucan % ([1]; T/t 140/1, IL 50%): 37.8%
- Composition Lignin % ([1]; T/t 140/1, IL 50%): 18.5%
- Composition Xylan % ([1]; T/t 140/1, IL 50%): 22.6%
- Composition Glucan % ([1]; T/t 140/1, IL 100%): 39.5%
- Composition Lignin % ([1]; T/t 140/1, IL 100%): 19.5%
- Composition Xylan % ([1]; T/t 140/1, IL 100%): 23.9%

SMILES: CC(=O)O.NCCO [[EOA][OAc], ethanolamine acetate]
- Glucan ([2]; 120 °C/1 h): 40.6 ± 0.4%
- Lignin ([2]; 120 °C/1 h): 11.6 ± 0.5%
- Xylan ([2]; 120 °C/1 h): 25.4 ± 0.2%
- Glucan ([2]; 120 °C/3 h): 42.5 ± 0.7%
- Lignin ([2]; 120 °C/3 h): 9.1 ± 1.8%
- Xylan ([2]; 120 °C/3 h): 26.0 ± 0.1%
- Glucan ([2]; 140 °C/1 h): 48.2 ± 0.6%
- Lignin ([2]; 140 °C/1 h): 8.4 ± 1.2%
- Xylan ([2]; 140 °C/1 h): 24.2 ± 1.1%
- Glucan ([2]; 140 °C/3 h): 47.5 ± 0.1%
- Lignin ([2]; 140 °C/3 h): 6.5 ± 0.4%
- Xylan ([2]; 140 °C/3 h): 24.0 ± 0.4%
- Glucan ([2]; 160 °C/0.5 h): 48.0% and 48.0 ± 1.6%
- Lignin ([2]; 160 °C/0.5 h): 6.1 ± 1.4%
- Xylan ([2]; 160 °C/0.5 h): 25.8 ± 0.6%
- Glucan ([2]; 160 °C/1 h): 48.9% and 48.9 ± 1.6%
- Lignin ([2]; 160 °C/1 h): 5.7 ± 1.6%
- Xylan ([2]; 160 °C/1 h): 26.6 ± 0.5%
- Glucan ([2]; 160 °C/3 h): 49.8% and 49.8 ± 0.2%
- Lignin ([2]; 160 °C/3 h): 4.7% and 4.7 ± 0.8%
- Xylan ([2]; 160 °C/3 h): 26.1 ± 0.9%
- xylan contents for pretreated biomass ([2]; over all temperatures and times): 24-27%

SMILES: CCCCN(CCCC)CCCC.O=P(O)(O)O [[N444][H2PO4]]
- Composition Glucan % ([1]; T/t 50/3): 39.6%
- Composition Lignin % ([1]; T/t 50/3): 18.6%
- Composition Xylan % ([1]; T/t 50/3): 21.6%
- Composition Glucan % ([1]; T/t 90/3): 37.7%
- Composition Lignin % ([1]; T/t 90/3): 18.8%
- Composition Xylan % ([1]; T/t 90/3): 21.1%
